The source of these data is PubChem BioAssay AID977630 (Broad Institute, 2014).

The campaign covered roughly 1,600 compounds. Fewer than 10 were called active. About 48% were inconclusive and are not listed.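 Rule for the calls: active = Normal-ribosome green reporter loss at least double humanized-ribosome red reporter loss, with overall culture growth inhibition under a set limit; inconclusive = no clear call, values can overlap the other calls; inactive = the rest.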 Only a part is listed here, and it is no random draw. Measured potencies and affinities stand elsewhere.

A short description of the test: growth inhibition of wild-type GFP E. coli, H38-humanized RFP comparator, dose response, H38 mutant RFP vs wild-type GFP, cherry-pick (AID 977630).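 Note: wild-type GFP strain mixed equally with humanized-ribosome H38 mutant expressing RFP.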 As to conditions: mixed culture, 24 h; at 50 µM (top of the series).
Take `CCn1c(SCC(=O)Nc2ccc(OC)cc2)nc2nc3c(cc2c1=O)CCCC3`: the activity change, negative = inhibition is inactive: -12.5. For the compound `O=C(CCCOc1ccccc1)NCCc1nc2ccccc2[nH]1`, the activity change, negative = inhibition is inactive: 0.362.

Take `CC(C)(C)S(=O)(=O)Cc1nc(-c2ccc(Cl)c(Cl)c2)cs1`: the activity change, negative = inhibition was inactive: -9.14. `Cc1onc(-c2ccccc2Cl)c1C(=O)OCC(=O)c1ccccc1`: the activity change, negative = inhibition is inactive: -2.63.

`CC(=O)Oc1ccc(N(c2ccccc2)S(=O)(=O)c2ccc(C)cc2)cc1`: the activity change, negative = inhibition is inactive: -7.09. For `CN(Cc1c(F)cccc1Cl)C(=O)c1ccc(NS(=O)(=O)c2ccc3[nH]c(=O)[nH]c3c2)cc1`, the activity change, negative = inhibition was inactive: 1.93. Next, `CCCCOc1ccc(-c2nnn(CCC(=O)N3CCOCC3)n2)cc1`: inactive: -6.25; `CNC(=O)c1ccsc1NC(=O)c1ccc(S(=O)(=O)N2CCc3ccccc32)cc1`: inactive: -17.7. Consider `CN(c1ccc(C(=O)NCc2cccs2)cc1)S(=O)(=O)c1ccccc1`, for which the activity change, negative = inhibition was inactive: -1.34. Take `CCc1ccc2nc(SCC(=O)Nc3ccccc3N3CCOCC3)c(C#N)cc2c1`: the activity change, negative = inhibition is inactive: 26.5.

Regarding `CCc1c(N=O)c(-c2ccccc2)n(O)[n+]1[O-]`, the activity change, negative = inhibition is inactive: -11.5. For the compound `O=C(Nc1ccc(Br)cc1)c1cccnc1N1CCCCC1`, the activity change, negative = inhibition is inactive: -2.35. `O=c1c2ccccc2cnn1Cc1n[nH]c(=S)n1C1CC2CCC1C2` (centres undefined): the activity change, negative = inhibition is inactive: -3.93. Take `Cc1ccc2c(N)c(C(=O)c3ccccc3)sc2n1`: the activity change, negative = inhibition was inactive: -6.67. `COc1ccccc1N1CCN(Cc2ccc(OC)c3ccccc23)CC1`: the activity change, negative = inhibition was inactive: -2.23. Next, `Cc1ccc(N2C(=S)NC3c4cc(Cl)ccc4OC2(C)C3C(=O)N(C)C)cc1` (centres undefined): inactive: -10.2.

Take `O=S(=O)(Cc1ccco1)Cc1nc(-c2ccc(Cl)cc2)cs1`: the activity change, negative = inhibition was inactive: -12. For `O=C(Nc1ccccc1N1CCOCC1)C1CCCCN1S(=O)(=O)c1ccccc1` (centres undefined), the activity change, negative = inhibition was inactive: -15.6. For the compound `COc1ccccc1CC(=O)NCCc1c[nH]c2ccccc12`, the activity change, negative = inhibition is inactive: -5.01. For `CSc1ccccc1C(=O)NCCc1ccc(S(=O)(=O)N2CCCCC2)cc1`, the activity change, negative = inhibition was inactive: -4.84. In the case of `COC(=O)c1ccsc1NC(=O)c1cccc(OC)c1` it was inactive: -8.8; in that of `Cc1ccc(C(=O)NCC(=O)OCC(=O)Nc2cccc(S(=O)(=O)N3CCCC3)c2)cc1C`, inactive: -4.28. Regarding `Cc1cccc(NC(=O)c2nc(S(=O)(=O)Cc3ccccc3)ncc2Cl)c1`, the activity change, negative = inhibition is inactive: -4.84. On to `CN(C)S(=O)(=O)c1cccc(C(=O)Nc2ccc(C(=O)Nc3cccc(S(N)(=O)=O)c3)cc2)c1`, for which the activity change, negative = inhibition was inactive: -13.6. `Cc1ncoc1C(=O)NCCC(c1ccccc1)c1ccccc1`: the activity change, negative = inhibition was inactive: -18.2.

Take `CCOc1ccc2nc(N(CCN(C)C)C(=O)c3ccc4ccccc4c3)sc2c1`: the activity change, negative = inhibition was inactive: -11.3.

On to `COc1cc[n+]([O-])cc1[N+](=O)[O-]`, for which the activity change, negative = inhibition was inactive: 5.53. Turning to `COc1ccc(CN(C)C(=O)c2cc(-c3ccc(OC)c(OC)c3)nc3ccccc23)c(OC)c1`, the activity change, negative = inhibition was inactive: -3.82. In the case of `Cc1cc(C)c(NC(=O)C(C)c2cccc(C(=O)c3ccccc3)c2)c(C)c1` (centres undefined), the activity change, negative = inhibition is inactive: -14.8. Take `COc1ccc(-c2nc(C3CCCCC3)no2)cc1OC`: the activity change, negative = inhibition is inactive: -8.9.

With `COc1cc(CC(=O)Nc2nc(C)cs2)cc(OC)c1OC`, the activity change, negative = inhibition was inactive: -5.62. On to `CC(=O)Cc1cc(O)c2ccccc2c1OC(=O)c1ccc(Br)cc1`, for which the activity change, negative = inhibition is inactive: 4.43. For the compound `O=C(COC(=O)CNC(=O)c1ccc(F)cc1)Nc1cccc(S(=O)(=O)N2CCCC2)c1`, the activity change, negative = inhibition is inactive: -9.73. Regarding `Cc1ccc(-c2c[n+](CC(=O)Nc3ccccc3)c3n2CCC3)cc1`, the activity change, negative = inhibition is inactive: -1.85.
